Measured values as given in paper PMC5362955.
No constants are given. Whether binding was seen depends on the method and setting. Binding seen in cells or lysates may run through a third protein. Some entries that bind do so weakly or less than the wild type. For some of these results: Sequences can lack the tags named with a protein. Each block holds one binder with its values, some of them ahead of it.

Amino acid sequences for entries named in this document (tags omitted). A change or cut given only in a name is not applied to a line headed by its entry.
UniProt Q9Y6W5: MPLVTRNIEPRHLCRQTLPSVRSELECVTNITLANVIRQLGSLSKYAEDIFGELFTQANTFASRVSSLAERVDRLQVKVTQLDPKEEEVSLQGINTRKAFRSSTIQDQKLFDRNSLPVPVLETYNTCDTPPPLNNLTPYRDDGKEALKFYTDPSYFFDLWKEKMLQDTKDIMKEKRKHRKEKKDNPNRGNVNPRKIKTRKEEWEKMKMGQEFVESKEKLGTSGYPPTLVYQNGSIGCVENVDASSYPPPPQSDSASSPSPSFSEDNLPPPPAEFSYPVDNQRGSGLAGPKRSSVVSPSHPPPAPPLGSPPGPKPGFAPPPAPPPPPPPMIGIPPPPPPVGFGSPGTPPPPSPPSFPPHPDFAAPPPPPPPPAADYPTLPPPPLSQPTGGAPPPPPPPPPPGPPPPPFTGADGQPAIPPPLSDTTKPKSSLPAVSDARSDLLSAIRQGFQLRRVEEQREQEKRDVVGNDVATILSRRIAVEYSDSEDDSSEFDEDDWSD

Assays:
[1] = biological target: WASp family Verprolin-homologous protein-2 (WAVE2), endogenous in PBLs (human (endogenous in PBLs)) (UniProt Q9Y6W5); assay: co-IP; endogenous WAVE2 immunoprecipitated from PBL lysates, blotted for Hem-1 (first immunoprecipitation)
[2] = biological target: WASp family Verprolin-homologous protein-2 (WAVE2), endogenous in PBLs (human (endogenous in PBLs)) (UniProt Q9Y6W5); assay: condition: only after boiling the immunoprecipitated proteins in SDS and re-immunoprecipitating WAVE2; co-IP; second WAVE2 immunoprecipitation after the precipitated complex was boiled 5 min in denaturation buffer (20 mM Tris-HCl pH 8, 50 mM NaCl, 5 mM DTT, 1% SDS, 1 mM sodium orthovanadate) and diluted with lysis buffer
YFP-WAVE2 K45R (human) = YFP-WAVE2 K45R (human) (UniProt Q9Y6W5); assay: co-IP; three forms of WAVE2 (wt, K45R, Δ25-64aa) immunoprecipitated, binding to Hem-1 compared (Supplementary Fig. S4); cells not given
YFP-WAVE2 wt (human) = YFP-WAVE2 wt (human) (UniProt Q9Y6W5); assay: as above

binding [1]: binds
binding [2]: no binding
B1: Hem-1, endogenous in PBLs (protein, UniProt P55160 1-1127)
chain: MSLTSAYQHKLAEKLTILNDRGQGVLIRMYNIKKTCSDPKSKPPFLLEKSMEPSLKYINKKFPNIDVRNSTQHLGPVHREKAEIIRFLTNYYQSFVDVMEFRDHVYELLNTIDACQCHFDINLNFDFTRSYLDLIVTYTSVILLLSRIEDRRILIGMYNCAHEMLHGHGDPSFARLGQMVLEYDHPLKKLTEEFGPHTKAVSGALLSLHFLFVRRNQGAEQWRSAQLLSLISNPPAMINPANSDTMACEYLSVEVMERWIIIGFLLCHGCLNSNSQCQKLWKLCLQGSLYITLIREDVLQVHKVTEDLFSSLKGYGKRVADIKESKEHVIANSGQFHCQRRQFLRMAVKELETVLADEPGLLGPKALFAFMALSFIRDEVTWLVRHTENVTKTKTPEDYADSSIAELLFLLEGIRSLVRRHIKVIQQYHLQYLARFDALVLSDIIQNLSVCPEEESIIMSSFVSILSSLNLKQVDNGEKFEFSGLRLDWFRLQAYTSVAKAPLHLHENPDLAKVMNLIVFHSRMLDSVEKLLVETSDLSTFCFHLRIFEKMFAMTLEESAMLRYAIAFPLICAHFVHCTHEMCPEEYPHLKNHGLHHCNSFLEELAKQTSNCVLEICAEQRNLSEQLLPKHCATTISKAKNKKTRKQRQTPRKGEPERDKPGAESHRKNRSIVTNMDKLHLNLTELALTMNHVYSFSVFEHTIFPSEYLSSHLEARLNRAIVWLAGYNATTQEIVRPSELLAGVKAYIGFIQSLAQFLGADASRVIRNALLQQTQPLDSCGEQTITTLYTNWYLESLLRQASSGTIILSPAMQAFVSLPREGEQNFSAEEFSDISEMRALAELLGPYGMKFLSENLMWHVTSQIVELKKLVVENMDILVQIRSNFSKPDLMASLLPQLTGAENVLKRMTIIGVILSFRAMAQEGLREVFSSHCPFLMGPIECLKEFVTPDTDIKVTLSIFELASAAGVGCDIDPALVAAIANLKADTSSPEEEYKVACLLLIFLAVSLPLLATDPSSFYSIEKDGYNNNIHCLTKAIIQVSAALFTLYNKNIETHLKEFLVVASVSLLQLGQETDKLKTRNRESISLLMRLVVEESSFLTLDMLESCFPYVLLRNAYREVSRAFHLN

binding (YFP-WAVE2 K45R (human)): binds
binding (YFP-WAVE2 wt (human)): binds
B2: Hem-1, co-precipitated with YFP-WAVE2 forms (protein, UniProt P55160 1-1127)
chain: B1 chain
